Consider 116 substances from the supplement of paper PMC5949888.

Most values lie at the floor of the assay. Slopes are relative: functional sequences can read slightly below zero.

The data set deals with Saccharomyces cerevisiae PS128 hsf1 delta, HSF1(1-493) fusion. Description: growth estimate (transactivation domain function in HSF1 fusion, heat-shock survival) (a.u. (slope of normalised read count over time)); higher = stronger growth at 37°C, i.e. more transactivation activity. To be noted: library: random library.
With ARPT, the growth estimate was less than -0.25.
With CVWTPAEGMSPPGDATAHSV the figure was less than -0.25; with GPVFGCSKNLAGAAHAK, -0.243.
With RPASCPDSAYPPSR the figure was less than -0.25; with ISDTARTKHCRYHPVVTTDR, less than -0.25.
With VLLSSGTCLGASCEYASCVP the figure was less than -0.25.
Consider REVHNETA, for which the growth estimate is less than -0.25.
AHPSASRTCQVLRNDATAWR: the growth estimate is less than -0.25.
Consider RNSL, for which the growth estimate is less than -0.25.
As for GGIQEASLAHIQEEWVGQSS, the figure is less than -0.25.
With GPSRGGCREPSRRGTACYAR, the growth estimate was less than -0.25.
With VPVIYA the figure was less than -0.25; with VKVRDFILNTITT, less than -0.25.
With TLRPRPNPGKN the figure was less than -0.25.
With YLCRMAESSKGAKASLHNCI, the growth estimate is less than -0.25.
Take VVPACGTSEASKVICGVGGL: the growth estimate is less than -0.25.
With PSQGNLATGVANDGSAPRGH the figure was less than -0.25; with KCITAPPARLDRLCFSP, less than -0.25.
With LVVTQVLV the figure was less than -0.25; with WIFDYSHGYM, less than -0.25; with LLYH, less than -0.25.
With RVSKPMARMDA the figure was less than -0.25; with SVSILDNLDPAR, less than -0.25.
Consider VRASLATAIMCTL, for which the growth estimate was less than -0.25.
VSILGDLNNLFCQLGQVAGP: the growth estimate was less than -0.25.
With SHTPA the figure was less than -0.25; with TQLS, less than -0.25; with VEFRLTPRRRVAILPTSSRH, less than -0.25.
With KLGTQR, the growth estimate is less than -0.25.
For the substance IVRSPILGGHPNGFCGMEGS, the growth estimate is less than -0.25.
As for QFVAWIRVFPFRAG, the growth estimate is less than -0.25.
As for TCNRDGEGMVFLHNTKLGAW, the figure is less than -0.25; as for GKLSEGRVNKRRNEPYRSGP, less than -0.25; as for TVHRVILASGRK, less than -0.25.
As for FSGSGRYLHYAISEAGRGPP, the figure is less than -0.25; as for GGLCAEYCHSLY, 1.98.
Regarding RPMTGKPTSPRSVIEVTGLF, the growth estimate is -0.246.
As for VPRMSSSRWTG, the growth estimate is less than -0.25.
With LKRVADFNACVKGWDEQVRG the figure was less than -0.25; with DTHARGKHRSTTRAARQVMM, less than -0.25; with AESVWWSSMPRATQRRLPLH, less than -0.25.
As for KNYNPAGDAL, the figure is less than -0.25; as for EDL, less than -0.25.
As for DTRW, the growth estimate was less than -0.25.
With VGAEVTGISSDEFLLLPAIP the figure was less than -0.25; with IPNQVRDVWVMRWQTARATA, less than -0.25.
For HRLGLSSVRTQNRGTLSHTD, the growth estimate was less than -0.25.
Turning to LVLGITSPCRVAVACCKRSV, the growth estimate was less than -0.25.
With VLGSLQAICWWPGALRTGRR, the growth estimate is less than -0.25.
As for QVCIIPRDITPRDDLSRNLG, the figure is less than -0.25; as for TTD, less than -0.25.
As for LSRKLNSRTTLGSSVCSPRL, the figure is less than -0.25; as for IRGKVSTYWAQSPSADSTPA, less than -0.25.
As for GNVPP, the figure is less than -0.25; as for PDLMTERSRLGPGATGVAEQ, less than -0.25.
With MTVTVELAEPIPGYGNSART, the growth estimate was less than -0.25.
For the substance VKQFVWTRSLGTAGTWSPTS, the growth estimate was less than -0.25.
As for TKPSEPELEAKKGVVIRVEA, the figure is less than -0.25; as for EYNFQA, less than -0.25.
Regarding PYVLLK, the growth estimate was less than -0.25.
With QASG the figure was less than -0.25.
With SLLVVK the figure was less than -0.25.
Regarding QNLKK, the growth estimate was less than -0.25.
As for SRYARITSVANI, the growth estimate was less than -0.25.
As for RQERCMLGNYSVTVNSMRDV, the figure is less than -0.25.
As for FSGG, the figure is -0.182; as for PFEPVYT, less than -0.25.
Take LISNTEGYQSSQTGVTVRSP: the growth estimate is less than -0.25.
With DASWSP the figure was less than -0.25; with LYKRCRIEREAHALNSSLYL, -0.25.
Consider FRLTGTYSSTSKDH, for which the growth estimate was less than -0.25.
In the case of LLERIQPDMNTSSN, the growth estimate was less than -0.25.
With LLAYKQGDLRVAYRVHAT the figure was less than -0.25.
For PPSKLSFSLVFSQRLAFRGG, the growth estimate is less than -0.25.
As for RIRYRMITDESRVRLSKVE, the growth estimate is less than -0.25.
In the case of TSSKF, the growth estimate was less than -0.25.
With TNCDYLASGEDDRENHLLMR, the growth estimate is less than -0.25.
Consider MKDS, for which the growth estimate is less than -0.25.
As for AYWIRH, the figure is -0.246; as for PALEA, less than -0.25; as for GWELVSYIA, less than -0.25.
Take PRHSRKWHGHRGSLLPASRG: the growth estimate is less than -0.25.
In the case of RRPPAANPFQRGRQSSRVSR, the growth estimate was less than -0.25.
TPDHPAERVEGGGGEKKLER: the growth estimate was less than -0.25.
As for FSQSTLEGLIKVLPLQDPAG, the figure is less than -0.25; as for KGSTVCRSTQH, less than -0.25; as for LRTL, less than -0.25.
In the case of NPCVLGQSAYLI, the growth estimate is less than -0.25.
For TVGRDVFTFVFVVPRTPPSE, the growth estimate was less than -0.25.
As for TFRQELTEGWTKDWGGIYVV, the figure is less than -0.25; as for CRR, less than -0.25.
With HARKSRRVTTVVNNSLTKR the figure was less than -0.25; with VSSTHAPASYHGLDGRRCRS, less than -0.25.
Regarding HLAS, the growth estimate is less than -0.25.
With LLGSR the figure was less than -0.25.
As for AETPRH, the growth estimate was less than -0.25.
For GLEFSPFLLFEKI, the growth estimate is less than -0.25.
As for WPVCEAHIFEREVGVHYGAI, the figure is less than -0.25.
For the substance GGSVVFI, the growth estimate is less than -0.25.
As for GIVGNTLIFERSHHSRERLQ, the figure is less than -0.25; as for IGVGWEGRVFF, less than -0.25; as for GDSGASVVFLVQLT, less than -0.25.
With LIALPELINSRRFGEQIPKR the figure was less than -0.25; with KGMRSAVRSTRRRGRRPRAV, less than -0.25.
With LVVRRGGRPDLRSRRRTLQG the figure was less than -0.25; with VLS, less than -0.25; with PEL, less than -0.25.
In the case of QESVPGHEKSGSDDMAVTCR, the growth estimate is less than -0.25.
As for RFLR, the figure is less than -0.25; as for IRSGGTGPYVNEWLRCEYGQ, less than -0.25.
As for SLGGVGAWSPWLRGPQTQGT, the growth estimate is less than -0.25.
As for WRMGQVLVTAVRGFLCNKAD, the figure is less than -0.25.
With FTPPGERGGNYFLLVRLTKG the figure was less than -0.25.
For TWRLAPRWLSGCQISLPILA, the growth estimate was less than -0.25.
ISCPKRSNVYF: the growth estimate is less than -0.25.
In the case of ECHWCLFVRTDTPYVSGPRW, the growth estimate is less than -0.25.
